No constants are given. Whether binding was seen depends on the method and setting. In cells and extracts the contact can be indirect. Some results given as binding are weak or reduced against the parent protein; the word gives no strength. Sequences can lack the tags named with a protein.

By UniProt entry, the sequences of proteins in these tests, tags left out.
UniProt Q9C030: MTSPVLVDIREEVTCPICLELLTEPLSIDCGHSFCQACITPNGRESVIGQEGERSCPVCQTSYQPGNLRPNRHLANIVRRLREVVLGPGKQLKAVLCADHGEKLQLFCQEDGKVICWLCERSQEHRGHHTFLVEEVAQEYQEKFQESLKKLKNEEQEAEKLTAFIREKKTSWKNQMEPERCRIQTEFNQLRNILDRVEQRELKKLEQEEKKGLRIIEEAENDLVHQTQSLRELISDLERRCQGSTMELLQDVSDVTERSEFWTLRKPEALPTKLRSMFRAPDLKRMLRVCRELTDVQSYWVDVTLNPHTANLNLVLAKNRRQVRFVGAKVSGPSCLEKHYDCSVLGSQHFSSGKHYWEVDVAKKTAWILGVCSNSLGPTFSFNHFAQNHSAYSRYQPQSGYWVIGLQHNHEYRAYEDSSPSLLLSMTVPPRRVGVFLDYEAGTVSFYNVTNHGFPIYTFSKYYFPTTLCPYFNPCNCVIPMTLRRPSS

This test has as its target T1, FLAG-tagged VAMP8 (UniProt Q9BV40).
T1 sequence: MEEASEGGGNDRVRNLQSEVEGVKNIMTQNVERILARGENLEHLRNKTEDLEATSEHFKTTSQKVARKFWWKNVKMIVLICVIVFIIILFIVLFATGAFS
Briefly: co-IP.

“HA-tagged TRIM6 (from UniProt Q9C030 1-488)”: the binding result is on record as “binds”.

These data come from paper doi:10.1101/749853.
